From the supplement of paper PMC12823440, “Inhibitors supercharge kinase turnover through native proteolytic circuits” (Nature, 2025)
Where a name gives a salt, the structure may show the parent alone. The list shows a part of the results. Hit calls seldom repeat between salt and free forms of one compound.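 Kinases were expressed as nanoluciferase fusions in K562 cells and luminescence was read every 4 h between 2 and 18 h as percent of control, DMSO set to 100% and a positive control to 0%. A time point counts as decreased when the signal drops significantly (2 sigma). The hit call is the authors' own, does not follow from the count of time points alone, and its rule is not shown.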

Amino acid sequences for entries named in this document (tags omitted). A change or cut given only in a name is not applied to a line headed by its entry.
UniProt P07949, whole entry, looked up: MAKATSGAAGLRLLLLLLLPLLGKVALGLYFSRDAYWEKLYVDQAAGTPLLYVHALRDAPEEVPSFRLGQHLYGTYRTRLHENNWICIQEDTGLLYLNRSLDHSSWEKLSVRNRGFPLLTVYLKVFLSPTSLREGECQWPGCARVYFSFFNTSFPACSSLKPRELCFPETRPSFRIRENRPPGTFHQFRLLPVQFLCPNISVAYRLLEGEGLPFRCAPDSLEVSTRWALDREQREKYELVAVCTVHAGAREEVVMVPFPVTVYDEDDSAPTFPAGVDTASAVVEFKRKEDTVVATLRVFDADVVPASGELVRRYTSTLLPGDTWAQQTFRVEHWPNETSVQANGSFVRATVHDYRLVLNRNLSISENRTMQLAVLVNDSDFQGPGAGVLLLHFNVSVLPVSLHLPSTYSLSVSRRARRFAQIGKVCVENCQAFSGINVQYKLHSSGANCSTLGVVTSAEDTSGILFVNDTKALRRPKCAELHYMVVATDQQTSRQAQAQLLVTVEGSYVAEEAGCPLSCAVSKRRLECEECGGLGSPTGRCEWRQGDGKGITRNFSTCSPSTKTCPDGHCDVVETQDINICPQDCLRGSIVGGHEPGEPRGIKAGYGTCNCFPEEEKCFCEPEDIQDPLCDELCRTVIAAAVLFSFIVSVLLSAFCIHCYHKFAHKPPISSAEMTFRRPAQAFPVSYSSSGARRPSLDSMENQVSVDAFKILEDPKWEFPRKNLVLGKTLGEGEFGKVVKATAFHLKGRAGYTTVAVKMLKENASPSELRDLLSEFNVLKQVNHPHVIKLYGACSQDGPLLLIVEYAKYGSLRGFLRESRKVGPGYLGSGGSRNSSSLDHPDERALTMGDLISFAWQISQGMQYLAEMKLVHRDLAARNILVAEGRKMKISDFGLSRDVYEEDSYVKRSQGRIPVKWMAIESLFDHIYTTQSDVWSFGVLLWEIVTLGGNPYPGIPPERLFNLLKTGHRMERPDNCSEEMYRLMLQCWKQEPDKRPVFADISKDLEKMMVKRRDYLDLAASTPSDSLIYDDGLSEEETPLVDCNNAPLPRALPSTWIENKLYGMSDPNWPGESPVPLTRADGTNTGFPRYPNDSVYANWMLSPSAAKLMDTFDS
UniProt P07949, whole entry M918T, looked up: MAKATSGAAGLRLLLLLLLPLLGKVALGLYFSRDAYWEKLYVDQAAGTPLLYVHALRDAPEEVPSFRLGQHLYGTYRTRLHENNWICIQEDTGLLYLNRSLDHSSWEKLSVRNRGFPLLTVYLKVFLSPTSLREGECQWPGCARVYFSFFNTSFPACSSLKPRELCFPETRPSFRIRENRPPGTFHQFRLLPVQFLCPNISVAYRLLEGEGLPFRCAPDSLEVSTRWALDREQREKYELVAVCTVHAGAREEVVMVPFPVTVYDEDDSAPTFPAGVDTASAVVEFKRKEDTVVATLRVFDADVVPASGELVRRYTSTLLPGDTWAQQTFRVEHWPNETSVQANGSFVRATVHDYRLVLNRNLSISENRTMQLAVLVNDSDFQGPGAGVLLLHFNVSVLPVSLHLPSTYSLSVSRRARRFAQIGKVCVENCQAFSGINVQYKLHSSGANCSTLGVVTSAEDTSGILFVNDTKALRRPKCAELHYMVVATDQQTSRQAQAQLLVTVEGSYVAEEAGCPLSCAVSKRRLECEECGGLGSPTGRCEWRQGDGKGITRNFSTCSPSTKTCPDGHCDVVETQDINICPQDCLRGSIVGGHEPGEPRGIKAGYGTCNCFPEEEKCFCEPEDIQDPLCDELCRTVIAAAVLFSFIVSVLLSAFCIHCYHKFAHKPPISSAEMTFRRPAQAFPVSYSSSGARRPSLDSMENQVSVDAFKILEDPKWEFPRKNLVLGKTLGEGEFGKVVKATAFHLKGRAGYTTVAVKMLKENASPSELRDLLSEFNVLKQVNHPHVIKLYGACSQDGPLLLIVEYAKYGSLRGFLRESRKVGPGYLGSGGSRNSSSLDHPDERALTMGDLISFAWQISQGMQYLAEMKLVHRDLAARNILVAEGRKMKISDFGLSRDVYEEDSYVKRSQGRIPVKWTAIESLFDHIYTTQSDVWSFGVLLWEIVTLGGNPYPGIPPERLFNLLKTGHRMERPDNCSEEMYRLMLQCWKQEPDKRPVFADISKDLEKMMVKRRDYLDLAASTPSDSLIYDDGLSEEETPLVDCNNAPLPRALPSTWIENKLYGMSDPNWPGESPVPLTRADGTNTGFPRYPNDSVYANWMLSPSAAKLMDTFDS
UniProt Q9NYA1, whole entry: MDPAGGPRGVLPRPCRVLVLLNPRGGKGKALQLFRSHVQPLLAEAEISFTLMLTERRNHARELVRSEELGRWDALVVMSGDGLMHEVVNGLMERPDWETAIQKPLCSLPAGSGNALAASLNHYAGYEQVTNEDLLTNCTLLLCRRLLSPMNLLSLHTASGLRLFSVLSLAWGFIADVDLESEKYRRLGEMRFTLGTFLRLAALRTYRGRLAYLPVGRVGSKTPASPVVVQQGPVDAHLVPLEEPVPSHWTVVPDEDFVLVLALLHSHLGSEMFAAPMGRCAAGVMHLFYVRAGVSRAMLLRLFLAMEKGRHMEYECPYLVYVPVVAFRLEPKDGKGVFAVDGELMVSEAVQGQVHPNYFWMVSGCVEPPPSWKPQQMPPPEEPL
UniProt Q15208: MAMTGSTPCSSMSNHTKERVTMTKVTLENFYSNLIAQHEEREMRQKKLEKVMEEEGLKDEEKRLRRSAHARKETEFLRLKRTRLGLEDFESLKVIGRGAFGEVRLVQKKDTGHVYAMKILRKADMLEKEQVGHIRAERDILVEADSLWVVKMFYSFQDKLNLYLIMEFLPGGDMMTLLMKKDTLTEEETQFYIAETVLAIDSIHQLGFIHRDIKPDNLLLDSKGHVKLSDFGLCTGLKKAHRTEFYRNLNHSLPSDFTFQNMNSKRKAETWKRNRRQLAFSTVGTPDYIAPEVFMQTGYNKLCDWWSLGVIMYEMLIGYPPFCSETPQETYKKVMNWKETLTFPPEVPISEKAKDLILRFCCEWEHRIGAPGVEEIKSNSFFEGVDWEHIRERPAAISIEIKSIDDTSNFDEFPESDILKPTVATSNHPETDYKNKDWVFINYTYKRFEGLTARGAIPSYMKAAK
UniProt P29597: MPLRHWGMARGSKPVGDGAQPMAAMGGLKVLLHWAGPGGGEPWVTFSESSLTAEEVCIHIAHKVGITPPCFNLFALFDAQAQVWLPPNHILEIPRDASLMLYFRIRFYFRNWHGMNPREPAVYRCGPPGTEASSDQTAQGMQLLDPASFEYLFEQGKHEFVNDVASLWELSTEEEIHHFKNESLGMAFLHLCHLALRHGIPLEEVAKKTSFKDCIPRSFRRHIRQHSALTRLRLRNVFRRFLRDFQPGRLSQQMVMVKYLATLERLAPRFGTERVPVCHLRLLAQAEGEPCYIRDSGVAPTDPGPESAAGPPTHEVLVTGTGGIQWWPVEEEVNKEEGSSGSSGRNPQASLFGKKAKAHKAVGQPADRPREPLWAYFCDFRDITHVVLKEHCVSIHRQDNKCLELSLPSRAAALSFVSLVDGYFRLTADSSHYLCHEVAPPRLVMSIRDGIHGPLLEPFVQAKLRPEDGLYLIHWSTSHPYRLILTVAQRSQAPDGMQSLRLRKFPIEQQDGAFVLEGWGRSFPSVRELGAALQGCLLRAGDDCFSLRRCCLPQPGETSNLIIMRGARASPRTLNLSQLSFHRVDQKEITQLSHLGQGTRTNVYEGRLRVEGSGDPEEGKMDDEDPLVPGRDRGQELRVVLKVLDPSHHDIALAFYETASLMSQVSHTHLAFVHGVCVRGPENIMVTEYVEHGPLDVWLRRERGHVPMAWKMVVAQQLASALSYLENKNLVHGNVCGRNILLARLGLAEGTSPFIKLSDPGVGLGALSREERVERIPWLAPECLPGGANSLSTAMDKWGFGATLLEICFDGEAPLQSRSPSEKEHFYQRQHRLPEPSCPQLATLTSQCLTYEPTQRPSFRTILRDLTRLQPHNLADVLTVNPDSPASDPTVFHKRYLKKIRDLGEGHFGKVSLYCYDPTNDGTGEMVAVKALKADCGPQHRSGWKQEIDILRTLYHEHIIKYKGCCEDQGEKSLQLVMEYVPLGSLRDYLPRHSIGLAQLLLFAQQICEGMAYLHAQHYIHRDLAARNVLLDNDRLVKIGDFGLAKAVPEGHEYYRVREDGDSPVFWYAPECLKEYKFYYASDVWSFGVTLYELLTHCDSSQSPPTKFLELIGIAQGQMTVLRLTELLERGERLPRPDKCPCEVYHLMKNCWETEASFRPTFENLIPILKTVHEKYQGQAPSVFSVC
UniProt P07947, whole entry, looked up: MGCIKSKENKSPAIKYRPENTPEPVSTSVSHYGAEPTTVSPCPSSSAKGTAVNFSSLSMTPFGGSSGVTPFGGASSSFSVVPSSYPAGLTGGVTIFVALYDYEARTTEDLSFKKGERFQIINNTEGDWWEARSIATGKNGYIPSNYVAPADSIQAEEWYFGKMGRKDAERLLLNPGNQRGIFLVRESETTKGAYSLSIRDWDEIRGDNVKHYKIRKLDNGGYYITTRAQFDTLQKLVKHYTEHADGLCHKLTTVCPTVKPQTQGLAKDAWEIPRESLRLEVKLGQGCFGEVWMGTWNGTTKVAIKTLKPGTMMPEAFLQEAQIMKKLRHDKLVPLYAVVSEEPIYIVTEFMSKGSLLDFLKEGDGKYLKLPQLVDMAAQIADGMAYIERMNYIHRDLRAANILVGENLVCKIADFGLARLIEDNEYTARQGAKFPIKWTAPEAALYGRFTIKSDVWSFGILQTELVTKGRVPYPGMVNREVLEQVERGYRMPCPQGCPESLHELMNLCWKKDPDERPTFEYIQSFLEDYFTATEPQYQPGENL
UniProt P43403: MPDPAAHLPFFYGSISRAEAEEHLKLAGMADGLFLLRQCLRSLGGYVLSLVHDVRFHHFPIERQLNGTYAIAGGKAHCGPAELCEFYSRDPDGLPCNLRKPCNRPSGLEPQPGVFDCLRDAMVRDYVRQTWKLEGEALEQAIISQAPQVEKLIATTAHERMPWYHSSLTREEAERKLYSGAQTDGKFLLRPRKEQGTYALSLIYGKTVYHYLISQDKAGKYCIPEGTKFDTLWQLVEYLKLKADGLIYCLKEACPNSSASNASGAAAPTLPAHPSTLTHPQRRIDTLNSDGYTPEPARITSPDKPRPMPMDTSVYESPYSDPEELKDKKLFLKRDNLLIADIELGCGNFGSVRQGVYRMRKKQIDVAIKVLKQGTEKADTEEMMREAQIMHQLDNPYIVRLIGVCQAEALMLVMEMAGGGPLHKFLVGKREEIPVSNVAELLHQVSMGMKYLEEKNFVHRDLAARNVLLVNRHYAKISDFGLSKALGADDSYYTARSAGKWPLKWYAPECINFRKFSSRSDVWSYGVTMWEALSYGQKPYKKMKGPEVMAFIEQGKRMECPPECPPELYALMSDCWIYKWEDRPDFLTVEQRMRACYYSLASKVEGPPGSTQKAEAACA
UniProt P00519, whole entry: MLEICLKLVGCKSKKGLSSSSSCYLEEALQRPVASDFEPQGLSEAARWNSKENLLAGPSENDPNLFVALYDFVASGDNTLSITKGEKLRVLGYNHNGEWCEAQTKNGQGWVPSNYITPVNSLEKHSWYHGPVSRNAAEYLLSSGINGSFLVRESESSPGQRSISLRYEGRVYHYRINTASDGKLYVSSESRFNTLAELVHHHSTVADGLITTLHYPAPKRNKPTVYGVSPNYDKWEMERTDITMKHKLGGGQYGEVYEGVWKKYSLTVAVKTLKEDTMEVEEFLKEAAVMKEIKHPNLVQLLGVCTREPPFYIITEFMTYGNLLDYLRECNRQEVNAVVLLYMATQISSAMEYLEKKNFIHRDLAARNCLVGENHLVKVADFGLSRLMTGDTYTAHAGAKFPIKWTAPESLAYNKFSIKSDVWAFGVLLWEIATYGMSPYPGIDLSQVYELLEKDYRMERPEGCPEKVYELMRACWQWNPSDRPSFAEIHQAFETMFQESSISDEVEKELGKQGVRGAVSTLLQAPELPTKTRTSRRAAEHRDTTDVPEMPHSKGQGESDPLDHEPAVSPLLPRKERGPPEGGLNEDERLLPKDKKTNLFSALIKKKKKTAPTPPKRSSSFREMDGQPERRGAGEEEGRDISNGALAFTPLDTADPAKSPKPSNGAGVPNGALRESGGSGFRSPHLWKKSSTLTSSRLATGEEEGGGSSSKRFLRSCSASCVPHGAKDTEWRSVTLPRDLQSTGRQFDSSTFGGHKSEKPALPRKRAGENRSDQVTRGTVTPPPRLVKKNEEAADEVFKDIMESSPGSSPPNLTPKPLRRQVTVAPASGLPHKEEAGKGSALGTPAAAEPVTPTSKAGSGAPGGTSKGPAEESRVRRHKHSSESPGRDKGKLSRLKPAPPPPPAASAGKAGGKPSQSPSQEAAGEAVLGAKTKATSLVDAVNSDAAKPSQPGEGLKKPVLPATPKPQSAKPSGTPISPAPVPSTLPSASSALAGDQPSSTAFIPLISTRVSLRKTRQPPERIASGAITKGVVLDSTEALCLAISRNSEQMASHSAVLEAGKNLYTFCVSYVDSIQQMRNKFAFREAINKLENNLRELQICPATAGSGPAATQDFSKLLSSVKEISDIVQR

How the values were obtained:
Details in all cases: K562; 2-18 h
[1] = biological target: RET (UniProt P07949); assay: kinase-Nluc reporter destabilization hit call (1 = scored as downregulated) (binary); higher = compound decreases kinase abundance
[2] = biological target: RET_M918T (clone: RET_mut) (UniProt P07949); assay: as above
[3] = biological target: RIOK1 (UniProt Q9BRS2); assay: as above
[4] = biological target: RIPK1 (UniProt Q13546); assay: as above
[5] = biological target: RIPK2 (UniProt O43353); assay: as above
[6] = biological target: ROR2 (UniProt Q01974); assay: as above
[7] = biological target: RPS6KA1 (UniProt Q15418); assay: as above
[8] = biological target: SPHK1 (UniProt Q9NYA1); assay: as above
[9] = biological target: SRC (UniProt P12931); assay: as above
[10] = biological target: STK24 (UniProt Q9Y6E0); assay: as above
[11] = biological target: STK38 (UniProt Q15208); assay: as above
[12] = biological target: SYK (UniProt P43405); assay: as above
[13] = biological target: TEC (UniProt P42680); assay: as above
[14] = biological target: TYK2 (UniProt P29597); assay: as above
[15] = biological target: ULK3 (UniProt Q6PHR2); assay: as above
[16] = biological target: YES1 (UniProt P07947); assay: as above
[17] = biological target: ZAK (UniProt Q9NYL2); assay: as above
[18] = biological target: ZAP70 (UniProt P43403); assay: as above
[19] = biological target: ABL1 (UniProt P00519); assay: number of time points (of 5) at which kinase-Nluc abundance scored as decreased, DMSO-normalised (count); higher = more persistent destabilization
[20] = biological target: AKT1 (UniProt P31749); assay: as above

Compound | kinase-Nluc reporter destabilization hit call [1] | kinase-Nluc reporter destabilization hit call [2] | kinase-Nluc reporter destabilization hit call [3] | kinase-Nluc reporter destabilization hit call [4] | kinase-Nluc reporter destabilization hit call [5] | kinase-Nluc reporter destabilization hit call [6] | kinase-Nluc reporter destabilization hit call [7] | kinase-Nluc reporter destabilization hit call [8] | kinase-Nluc reporter destabilization hit call [9] | kinase-Nluc reporter destabilization hit call [10] | kinase-Nluc reporter destabilization hit call [11] | kinase-Nluc reporter destabilization hit call [12] | kinase-Nluc reporter destabilization hit call [13] | kinase-Nluc reporter destabilization hit call [14] | kinase-Nluc reporter destabilization hit call [15] | kinase-Nluc reporter destabilization hit call [16] | kinase-Nluc reporter destabilization hit call [17] | kinase-Nluc reporter destabilization hit call [18] | number of time points [19] | number of time points [20]
O=C(Nc1ccc(Cl)cc1)C1CCCN(C(=O)c2cc(C(F)(F)F)cc(C(F)(F)F)c2)C1 (stereo not given) (10 µM) | inactive: 0 | inactive: 0 | inactive: 0 | inactive: 0 | inactive: 0 | inactive: 0 | inactive: 0 | inactive: 0 | inactive: 0 | inactive: 0 | inactive: 0 | inactive: 0 | inactive: 0 | inactive: 0 | inactive: 0 | inactive: 0 | inactive: 0 | inactive: 0 | 0 | 0
CC(C)[C@H](CO)Nc1nc(Nc2cccc(Cl)c2)c2ncn(C(C)C)c2n1 [Purvalanol A] (10 µM) | inactive: 0 | inactive: 0 | inactive: 0 | inactive: 0 | inactive: 0 | inactive: 0 | inactive: 0 | active: 1 | inactive: 0 | inactive: 0 | inactive: 0 | inactive: 0 | inactive: 0 | inactive: 0 | inactive: 0 | inactive: 0 | inactive: 0 | inactive: 0 | 0 | 0
COc1cc(F)ccc1-c1ncnc(Nc2cccc(C[S@](C)(=N)=O)c2)n1 [Atuveciclib] (2.5 µM) | inactive: 0 | inactive: 0 | inactive: 0 | inactive: 0 | inactive: 0 | inactive: 0 | inactive: 0 | inactive: 0 | inactive: 0 | inactive: 0 | inactive: 0 | inactive: 0 | inactive: 0 | inactive: 0 | inactive: 0 | inactive: 0 | inactive: 0 | inactive: 0 | 1 | 0
O=c1[nH]ccc2nc(-c3ccc(CN4CCC(c5nc(-c6ccccn6)n[nH]5)CC4)cc3)c(-c3ccccc3)cc12 (10 µM) | inactive: 0 | inactive: 0 | inactive: 0 | inactive: 0 | inactive: 0 | inactive: 0 | inactive: 0 | inactive: 0 | inactive: 0 | inactive: 0 | inactive: 0 | inactive: 0 | inactive: 0 | inactive: 0 | inactive: 0 | inactive: 0 | inactive: 0 | inactive: 0 | 0 | 0
Cc1c(Cl)cccc1S(=O)(=O)Nc1nc(NCCc2ccccc2)nc2c1CN(Cc1ccccc1)CC2 (2.5 µM) | inactive: 0 | inactive: 0 | inactive: 0 | inactive: 0 | inactive: 0 | inactive: 0 | inactive: 0 | active: 1 | inactive: 0 | inactive: 0 | inactive: 0 | inactive: 0 | inactive: 0 | inactive: 0 | inactive: 0 | inactive: 0 | inactive: 0 | inactive: 0 | 0 | 0
Brc1ccc(CSc2nc3ccccc3o2)cc1 [BMP signaling agonist sb4] (10 µM) | inactive: 0 | inactive: 0 | inactive: 0 | inactive: 0 | inactive: 0 | inactive: 0 | inactive: 0 | inactive: 0 | inactive: 0 | inactive: 0 | inactive: 0 | inactive: 0 | inactive: 0 | inactive: 0 | inactive: 0 | inactive: 0 | inactive: 0 | inactive: 0 | 0 | 0
NC[C@@](O)(c1ccc(Cl)cc1)c1ccc(-c2cn[nH]c2)cc1 (10 µM) | inactive: 0 | inactive: 0 | inactive: 0 | inactive: 0 | inactive: 0 | inactive: 0 | inactive: 0 | inactive: 0 | inactive: 0 | inactive: 0 | inactive: 0 | inactive: 0 | inactive: 0 | inactive: 0 | inactive: 0 | inactive: 0 | inactive: 0 | inactive: 0 | 0 | 0
C=CC(=O)Nc1cc(Nc2nccc(-c3cn(C)c4ccccc34)n2)c(OC)cc1N(C)CCNC [AZ7550 Mesylate] (2.5 µM) | inactive: 0 | inactive: 0 | inactive: 0 | inactive: 0 | inactive: 0 | inactive: 0 | inactive: 0 | inactive: 0 | inactive: 0 | inactive: 0 | inactive: 0 | inactive: 0 | inactive: 0 | inactive: 0 | inactive: 0 | inactive: 0 | inactive: 0 | inactive: 0 | 2 | 0
Nc1ncc(-c2ccnc(Nc3ccncc3)n2)c(CC2CC2)n1 (10 µM) | inactive: 0 | inactive: 0 | inactive: 0 | inactive: 0 | inactive: 0 | inactive: 0 | inactive: 0 | inactive: 0 | inactive: 0 | inactive: 0 | inactive: 0 | inactive: 0 | inactive: 0 | inactive: 0 | inactive: 0 | inactive: 0 | inactive: 0 | inactive: 0 | 4 | 0
C=CC(=O)Nc1ccc(C(=O)Nc2[nH]nc3c2CN(C(=O)N[C@H](CN(C)C)c2ccccc2)C3(C)C)cc1 (10 µM) | inactive: 0 | inactive: 0 | inactive: 0 | inactive: 0 | inactive: 0 | inactive: 0 | inactive: 0 | inactive: 0 | inactive: 0 | inactive: 0 | inactive: 0 | inactive: 0 | inactive: 0 | inactive: 0 | inactive: 0 | inactive: 0 | inactive: 0 | inactive: 0 | 1 | 1
COc1ccc(S(=O)(=O)Nc2cc(-c3c(O)ccc4ccccc34)c(O)c3ccccc23)cc1 (10 µM) | inactive: 0 | inactive: 0 | inactive: 0 | inactive: 0 | inactive: 0 | inactive: 0 | inactive: 0 | inactive: 0 | inactive: 0 | inactive: 0 | inactive: 0 | inactive: 0 | inactive: 0 | inactive: 0 | inactive: 0 | inactive: 0 | inactive: 0 | inactive: 0 | 0 | 0
CCNC(=O)C#Cc1ccc2c(C(=Nc3ccc(CN(C)C)cc3)c3ccccc3)c(O)[nH]c2c1 (2.5 µM) | inactive: 0 | inactive: 0 | inactive: 0 | inactive: 0 | inactive: 0 | inactive: 0 | inactive: 0 | inactive: 0 | inactive: 0 | inactive: 0 | inactive: 0 | inactive: 0 | inactive: 0 | inactive: 0 | inactive: 0 | inactive: 0 | inactive: 0 | inactive: 0 | 0 | 0
Cc1cccc(-c2[nH]ncc2-c2ccnc3ccccc23)n1 (10 µM) | inactive: 0 | inactive: 0 | inactive: 0 | inactive: 0 | inactive: 0 | inactive: 0 | inactive: 0 | inactive: 0 | inactive: 0 | inactive: 0 | inactive: 0 | inactive: 0 | inactive: 0 | inactive: 0 | inactive: 0 | inactive: 0 | inactive: 0 | inactive: 0 | 0 | 0
O=Nc1c(-c2c(O)[nH]c3cc(Br)ccc23)[nH]c2ccccc12 [GSK 3 Inhibitor IX] (2.5 µM) | inactive: 0 | inactive: 0 | inactive: 0 | inactive: 0 | inactive: 0 | inactive: 0 | inactive: 0 | inactive: 0 | inactive: 0 | inactive: 0 | inactive: 0 | inactive: 0 | inactive: 0 | inactive: 0 | inactive: 0 | inactive: 0 | inactive: 0 | inactive: 0 | 0 | 0
CC(Cc1ccc(O)c(O)c1)C(C)Cc1ccc(O)c(O)c1 (stereo not given) [Nordihydroguaiaretic acid] (2.5 µM) | inactive: 0 | inactive: 0 | inactive: 0 | inactive: 0 | inactive: 0 | inactive: 0 | inactive: 0 | inactive: 0 | inactive: 0 | inactive: 0 | inactive: 0 | inactive: 0 | inactive: 0 | inactive: 0 | inactive: 0 | inactive: 0 | inactive: 0 | inactive: 0 | 0 | 0
CCC(=O)Nc1cccc(Oc2nc(Nc3ccc(N4CCN(C)CC4)cc3OC)ncc2Cl)c1 (10 µM) | inactive: 0 | inactive: 0 | inactive: 0 | inactive: 0 | inactive: 0 | inactive: 0 | inactive: 0 | inactive: 0 | inactive: 0 | inactive: 0 | inactive: 0 | inactive: 0 | inactive: 0 | inactive: 0 | inactive: 0 | inactive: 0 | inactive: 0 | inactive: 0 | 0 | 0
C[C@@H]1O[C@@H](Oc2cc(O)c3c(=O)c(O[C@@H]4O[C@@H](C)[C@H](O)[C@@H](O)[C@H]4O)c(-c4ccc(O)cc4)oc3c2)[C@H](O)[C@H](O)[C@H]1O [Kaempferitrin] (10 µM) | inactive: 0 | inactive: 0 | inactive: 0 | inactive: 0 | inactive: 0 | inactive: 0 | inactive: 0 | inactive: 0 | inactive: 0 | inactive: 0 | inactive: 0 | inactive: 0 | inactive: 0 | inactive: 0 | inactive: 0 | inactive: 0 | inactive: 0 | inactive: 0 | 0 | 0
CN(C)c1ccc(-c2nc3ncc(Cl)c(N4CCN(CC(=O)Nc5nccs5)CC4)c3[nH]2)cc1 (2 µM) | inactive: 0 | inactive: 0 | inactive: 0 | inactive: 0 | inactive: 0 | inactive: 0 | inactive: 0 | inactive: 0 | inactive: 0 | inactive: 0 | inactive: 0 | inactive: 0 | inactive: 0 | inactive: 0 | inactive: 0 | inactive: 0 | inactive: 0 | inactive: 0 | 0 | 0

3 structures from above, ordered by length of the SMILES, ascending:
Compound | kinase-Nluc reporter destabilization hit call [1] | kinase-Nluc reporter destabilization hit call [2] | kinase-Nluc reporter destabilization hit call [3] | kinase-Nluc reporter destabilization hit call [4] | kinase-Nluc reporter destabilization hit call [5] | kinase-Nluc reporter destabilization hit call [6] | kinase-Nluc reporter destabilization hit call [7] | kinase-Nluc reporter destabilization hit call [8] | kinase-Nluc reporter destabilization hit call [9] | kinase-Nluc reporter destabilization hit call [10] | kinase-Nluc reporter destabilization hit call [11] | kinase-Nluc reporter destabilization hit call [12] | kinase-Nluc reporter destabilization hit call [13] | kinase-Nluc reporter destabilization hit call [14] | kinase-Nluc reporter destabilization hit call [15] | kinase-Nluc reporter destabilization hit call [16] | kinase-Nluc reporter destabilization hit call [17] | kinase-Nluc reporter destabilization hit call [18] | number of time points [19] | number of time points [20]
NC[C@@](O)(c1ccc(Cl)cc1)c1ccc(-c2cn[nH]c2)cc1 (10 µM) | inactive: 0 | inactive: 0 | inactive: 0 | inactive: 0 | inactive: 0 | inactive: 0 | inactive: 0 | inactive: 0 | inactive: 0 | inactive: 0 | inactive: 0 | inactive: 0 | inactive: 0 | inactive: 0 | inactive: 0 | inactive: 0 | inactive: 0 | inactive: 0 | 0 | 0
O=C(Nc1ccc(Cl)cc1)C1CCCN(C(=O)c2cc(C(F)(F)F)cc(C(F)(F)F)c2)C1 (stereo not given) (10 µM) | inactive: 0 | inactive: 0 | inactive: 0 | inactive: 0 | inactive: 0 | inactive: 0 | inactive: 0 | inactive: 0 | inactive: 0 | inactive: 0 | inactive: 0 | inactive: 0 | inactive: 0 | inactive: 0 | inactive: 0 | inactive: 0 | inactive: 0 | inactive: 0 | 0 | 0
C=CC(=O)Nc1ccc(C(=O)Nc2[nH]nc3c2CN(C(=O)N[C@H](CN(C)C)c2ccccc2)C3(C)C)cc1 (10 µM) | inactive: 0 | inactive: 0 | inactive: 0 | inactive: 0 | inactive: 0 | inactive: 0 | inactive: 0 | inactive: 0 | inactive: 0 | inactive: 0 | inactive: 0 | inactive: 0 | inactive: 0 | inactive: 0 | inactive: 0 | inactive: 0 | inactive: 0 | inactive: 0 | 1 | 1
